## Primary screen of a compound library

Mtb growth Cornell: 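Whole-cell assay for inhibitors of Mycobacterium tuberculosis growth, labelled Cornell in the record; the read-out is not stated. The concentration is filed as 10 mM, unlikely as a test dose, so the dose is not known. The record gives no direction; compounds strong in two other growth screens of this library score well above the rest, so higher reads as stronger inhibition. Size under these conditions: about 53,000 compounds, about 900 of them at 50% or above in at least one test.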
Mtb heat-shock: 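Assay on Mycobacterium tuberculosis, filed only as a heat shock assay from Cornell; the read-out is not stated. The concentration is filed as 10 mM, unlikely as a test dose, so the dose is not known. Higher reads as stronger inhibition (inferred: compounds with an IC50 in retests scored well above the rest). Size under these conditions: about 69,000 compounds, about 930 of them at 50% or above in at least one test.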

Values are the deposited “Percent Effect”, in %.
The record does not define 0% and 100%; most values in the screen are far below 50% and negative numbers occur (in some assays of this library far below -100).
The compounds are a random part of those screened.
A dash means the value is not listed here; it may have been measured.

compound,Mtb growth Cornell,Mtb heat-shock
Cn1cc(C(=O)N2CCN(c3ncccn3)CC2)ccc1=O,20.83,-20.02
O=C(O)C(F)(F)F.[H][C@]12C[C@@H](Cn3cncn3)N(C(C)C)[C@@]1([H])CCN(Cc1cccs1)C2,-25.93,-1.796
CCCc1nc(N[C@H]2COC[C@@H]2N2CCCCC2)c2cnn(C)c2n1,6.118,-32.32
O=C(O)C(F)(F)F.O=C(O)C(F)(F)F.O=C(O)C(F)(F)F.[H][C@]12CCN(Cc3ccc(C)s3)CC[C@]1([H])N(Cc1ccncc1)CCO2,7.879,43.06
CC(C)n1cnnc1CN(C)C(=O)Cn1ccc2ccccc2c1=O,7.948,9.46
CC(=O)NCC(=O)N1CCc2[nH]c(-c3ccccc3)nc2C1,3.317,-0.1853
O=C(c1ccccn1)N(CCO)Cc1cc(Br)ccc1F,-11.84,-20.07
[H][C@@]12CN(C(=O)c3ccnnc3)C[C@]1([H])CN(c1ncccn1)C2,-9.781,-19.56
COc1c(CC2CC(CO)=NO2)c(Br)c2c(c1OC)OCO2 (stereo not shown),-3.025,1.26
CC(C)n1cc(CN(Cc2ccsc2)CC2CCCO2)cn1 (stereo not shown),3.819,-25.29
O=S(=O)(CC1CC1)c1ncc(CN2CCOCC2)n1CC1CCCO1 (stereo not shown),12.52,12.56
Cn1nnc(NCc2ccc(-c3ccc(Br)cc3)o2)n1,60.92,17.42
CN(C)S(=O)(=O)NCC1(c2ccccc2Br)CC1,38.22,-22.26
CC(C)c1noc(CN2CCN(CCO)CC2)n1,-,18.45
COc1cc2c(cc1-c1nc3c(cnn3C)[nH]1)OCO2,-,41.11
Cc1nc(NC(=O)NC2CC(=O)N(C(C)C)C2)nn1C(C)C (stereo not shown),-,-5.117
C[S+]([O-])c1ccc(NC(=O)CC2=CCCCC2)cc1 (stereo not shown),0.01012,12.13
Cl.c1cn(-c2cncc(C3CCNCC3)n2)cn1,-19.38,-14.41
Cc1noc(C)c1-c1cc(CC2CCN(C(=O)c3cc[nH]n3)C2)ncn1 (stereo not shown),-22.09,-3.561
CCCc1cc(N2CCCCC2Cn2cc(C)cn2)n2ncnc2n1 (stereo not shown),11.43,16.18
COc1cccc(Cn2cc(C3=CCN(CC(=O)N(C)C)CC3)cn2)c1,-,-7.545
Cc1cccc(N2CCCC3(C2)CN(S(=O)(=O)C2CC2)CCO3)c1.O=C(O)C(F)(F)F (stereo not shown),5.786,10.78
CNc1nc2c(c(C(=O)N3CCCC3)n1)CN(Cc1cc(C)no1)CC2,-30.45,-14.1
Cc1cc(NC(=O)c2ccc(N3CCOCC3)c(C)c2)[nH]n1,-7.473,0.1659
Cc1cc(C(=O)N2CCCCC2C)ccc1NCC(=O)N1CCOCC1 (stereo not shown),-9.339,-17.4
Cn1ccnc1CNC1CCCOc2c1ccc1ccccc21 (stereo not shown),21.15,95.81
Cc1ccc2c(c1)CN(C(=O)c1cccs1)C(CN(C)C)CO2 (stereo not shown),6.23,5.924
Cc1nn(C)c(N(C)C)c1CNCc1ccnc(N2CCOCC2)c1,31.35,-2.844
O=C1CC(NCc2cnc(-c3cccs3)nc2)CN1c1ccccc1 (stereo not shown),-,-40.49
CN(Cc1ccco1)C1COC2(CCN(Cc3nccs3)CC2)C1.O=C(O)C(F)(F)F.O=C(O)C(F)(F)F (stereo not shown),27.3,3.565
CC(C)N(C)C(=O)C1=NOC2(CCN(C(=O)c3ccncc3)C2)C1 (stereo not shown),-17.78,10.59
CCn1nc(C)cc1C(=O)N1CCC(Nc2ccc(C)nn2)CC1,2.511,5.613
OCCN(Cc1ccno1)Cc1cc(Br)ccc1F,21.28,-12.13
Cc1cc(NC(=O)C(c2cccc(F)c2)N2CCOCC2)ccn1 (stereo not shown),-5.075,-20.4
O=S(=O)(NCC1CCN(c2cnccn2)CC1)c1cccs1,-,-10.76
CC(=O)Nc1ncc(S(=O)(=O)Nc2ccc(F)cc2F)s1,-,-1.445
O=C(O)C(F)(F)F.O=C(O)C(F)(F)F.O=C(O)C(F)(F)F.[H][C@@]12CN(Cc3ccc(OC)cc3)C[C@]1([H])OCCN2CCN1CCCC1,-46.22,-18.96
CSCCC(=O)N1CC[C@@H](N2CCN(c3ccccc3F)CC2)[C@H](O)C1,-1.196,-22.39
COc1cc2cc(C(=O)O)n(C)c2cc1OC,-,12.14
Cn1cccc1C(=O)N1CCC2(CCCN(CC3CC3)C2=O)C1 (stereo not shown),8.062,6.173
O=c1[nH][nH]cc1-c1ccnc(NCCN2CCCC2)n1,-,-34.04
CC(C)Oc1cccc(CC(=O)N(CC(N)=O)C2CCCC2)c1,-8.317,-6.488
CSCC[C@@H](CO)Nc1ccc(-c2nc(-c3ccccc3C)no2)cn1,21.09,-15.48
Cc1cnn(C2CCCN(C(=O)c3ccc(-n4cccn4)nc3)C2)c1 (stereo not shown),-14.26,5.396
CC(C)c1nn(C)c(N(C)C)c1CNCC(O)c1cccc(F)c1 (stereo not shown),-,12.57
O=C(c1cccs1)N1CCc2nnc(COc3cncnc3)n2CC1,-50.56,12.58
Cc1nn(CCCNC(=O)C2CCN(S(C)(=O)=O)CC2)cc1Br,34.63,8.692
CCCc1nnc(NC2CCN(CCO)CC2)o1,5.854,5.307
Cc1ccc(CN(CCCn2ccnc2)Cc2c(F)cccc2F)s1.O=C(O)CC(O)(CC(=O)O)C(=O)O,33.29,103.6
O=C(NCc1ccccc1)c1nc2c(o1)CN(C(=O)c1cccnc1)C2.O=C(O)C(F)(F)F,22.79,-1.2
COc1ncccc1CN1CCn2c(Cn3cncn3)cnc2C1,-,-10.96
Cc1nccn1-c1cccc(C2CCCN2S(=O)(=O)N(C)C)n1 (stereo not shown),-,0.1611
CC1(C)C(C(=O)NCCC2CN(Cc3c[nH]cn3)CCO2)C1(C)C (stereo not shown),4.114,-5.73
CC(C)c1nc(C2CCCN2Cc2ccccc2C#N)no1 (stereo not shown),5.057,-6.469
Cc1[nH]c2ccccc2c1-c1ccnc(NCCN2CCCCC2)n1,8.618,-7.693
CN(C(=O)c1ccc(OCC(F)F)nc1)c1ccc2c(c1)CCO2,-,-3.61
O=C(O)C(F)(F)F.[H][C@]12CCN(c3ccccn3)[C@@]1([H])CCC(=O)N2CC1CCOCC1,23.97,-11.38
CC(C)N(C)C(=O)c1ccc(CNc2ncc(C#N)cc2Cl)cc1,-,-42.51
CC1(C)CN(Cc2nnc(-c3cccnc3)o2)CC[C@]1(C)O,-22.76,17.74
CCc1nc2c(N3CCC4(CC3)CC(=O)N(CC)C4)ncnc2o1,-,-8.142
O=C(O)C(F)(F)F.O=C(O)C(F)(F)F.[H][C@@]12CN(CCOC)CCO[C@]1([H])CN(S(=O)(=O)c1cccnc1)C2,12.41,11.27
CC(C)CCN1CCC2(CNS(=O)(=O)c3cccnc3O2)C1 (stereo not shown),-,-12.01
CN(C)c1ncccc1C(=O)N1CCCC1Cn1cccn1 (stereo not shown),-26.48,-11.4
O=C(NCCn1cccn1)Nc1cc(C(=O)N2CCOCC2)ccc1Cl,-31.75,9.574
O=C(O)C(F)(F)F.O=C(O)C(F)(F)F.[H][C@@]12CN(Cc3nccs3)C[C@H](C(=O)N3CCCCO3)[C@]1([H])CCO2,4.991,2.178
COc1ncccc1NC(=O)NC1CCOc2ccccc21 (stereo not shown),18.5,9.869
Cc1cc(C)c2cc(C(=O)N3CCNC(=O)C3)[nH]c2c1,7.752,6.329
CCn1c(C2CCNCC2)nn(CCn2ccc(C)n2)c1=O,-3.496,13.63
COc1ccc(CCC2CCCN(CC(=O)O)C2)cc1 (stereo not shown),-,6.595
Cc1cccnc1CN1CCCCC1c1ccn2ccnc2n1 (stereo not shown),-,-5.711
CC(C)CCNc1nnc(C(C)C)s1,26.03,36.45
Cn1ccc2cc(CC3COCCN(C(=O)c4cccnc4)C3)ccc21 (stereo not shown),-36.36,-20.84
Cc1cnc(NCc2ccc(S(=O)(=O)N(C)C(C)C)cc2)nc1C,24.16,-5.23
NC(=O)c1nc(CC(=O)Nc2cccc(C(F)(F)F)c2)no1,11.96,14.96
CCN1CC[C@]2(CN(C(=O)[C@H]3CCCO3)C[C@H]2c2ccccc2)C1=O,2.55,12.05
[H][C@@]12CN(Cc3ccoc3)C[C@]1([H])OCCN2CC(=O)N(C)C,12.8,8.398
CCc1nc(CCNC(=O)NC2CC2)sc1C,17.94,6.882
[H][C@@]12CC(=O)N(CC)[C@@]1([H])CCN2S(=O)(=O)Cc1ccc(C)cc1,1.368,-1.996
CC(C)c1csc(C2CCCN(C(=O)Cn3ccccc3=O)C2)n1 (stereo not shown),-,-7.798
COCCCC(=O)N(CCC(=O)O)Cc1ccc(F)c(F)c1,10.9,6.965
COc1ccc(C)cc1C(=O)NC1(C#N)CCOCC1,-,-11.55
COCC1CC2(CCN(Cc3ccco3)CC2)CN1C(C)C.O=C(O)C(F)(F)F.O=C(O)C(F)(F)F (stereo not shown),15.01,9.164
CNC(=O)NCC(=O)Nc1ccccc1N1CCc2ccccc21,-,-4.202
Oc1ccc(N2CCN(Cc3cc4c(cc3Br)OCCO4)CC2)cc1,104.9,-0.04541

For reference, 10 entries once more:

compound	Mtb growth Cornell	Mtb heat-shock
O=C(NCc1ccccc1)c1nc2c(o1)CN(C(=O)c1cccnc1)C2.O=C(O)C(F)(F)F	22.79	-1.2
Cn1nnc(NCc2ccc(-c3ccc(Br)cc3)o2)n1	60.92	17.42
CN(C)S(=O)(=O)NCC1(c2ccccc2Br)CC1	38.22	-22.26
COc1ccc(CCC2CCCN(CC(=O)O)C2)cc1 (stereo not shown)	-	6.595
Cc1ccc(CN(CCCn2ccnc2)Cc2c(F)cccc2F)s1.O=C(O)CC(O)(CC(=O)O)C(=O)O	33.29	103.6
CC1(C)CN(Cc2nnc(-c3cccnc3)o2)CC[C@]1(C)O	-22.76	17.74
CC1(C)C(C(=O)NCCC2CN(Cc3c[nH]cn3)CCO2)C1(C)C (stereo not shown)	4.114	-5.73
Cc1nccn1-c1cccc(C2CCCN2S(=O)(=O)N(C)C)n1 (stereo not shown)	-	0.1611
CC(C)c1csc(C2CCCN(C(=O)Cn3ccccc3=O)C2)n1 (stereo not shown)	-	-7.798
CC(C)N(C)C(=O)C1=NOC2(CCN(C(=O)c3ccncc3)C2)C1 (stereo not shown)	-17.78	10.59

From ChEMBL document CHEMBL3988442, “University of Dundee, Small-Polar-MMV Screening Library” (2021).